Results are given in words; binding and its absence hold for the method and conditions named. Binding seen in cells or lysates may run through a third protein. A result given as binding can be weak or reduced; the word gives no strength.
Molecular target: histidine-tagged Pab0431 (Pyrococcus abyssi)
Test: pull-down; 5 ug histidine-tagged Pab0431 on Co2+ magnetic beads incubated with 16.5 mg P. abyssi cell extract 2 h at 4°C; PCNA revealed by anti-PCNA blot; only the target purified

- binding: binds
B1: PCNA, endogenous in the P. abyssi extract (protein, UniProt Q9UYX8 1-249)
chain: MPFEIVFEGAKEFAQLIETASRLIDEAAFKVTEEGISMRAMDPSRVVLIDLNLPASIFSKYEVDGEETIGVNMDHLKKVLKRGKAKETLILRKGEENFLEISLQGTATRTFKLPLIDVEEIEVDLPELPFTAKVVILGDVIKEAVKDASLVSDSMKFIAKENEFTMRAEGETQEVEVKLTLEDEGLLDIEVQEETKSAYGISYLSDMVKGLGKADEVTIKFGNEMPMQMEYYIRDEGRLIFLLAPRVEE
